The list does not hold the whole screen: it is rich in T/C values a quarter to a half above the control, in often repeated tests (any T/C) and in doses without a T/C. Other doses and runs of a compound stand elsewhere. T/C: endpoint of the treated group in % of that of the vehicle group. Schedules are NCI's codes, taken here to give the interval after Q, in days (D) or hours (H), and the number of doses after X. Some T/C values carry the count of animals alive at the toxicity check (mostly the fifth day); without a count, all were alive then. Some entries give survivors of the animals treated and no T/C: the source holds a T/C of zero for them, seemingly a mark for toxic or unscored doses. Survivors were counted at the toxicity check, usually on the fifth day, unless a day is given; later deaths do not show. Some doses were run more than once; their values stand side by side, smallest first. Where survival is the endpoint, this PubChem deposit counts one and a half times the control or more as active, and values a quarter to a half above the control carry no call in these data; other NCI protocols may use other cut-offs.
Test system: BDF1 mice, colon carcinoma 38 sc, T/C %
Assay: NCI In Vivo Anticancer Drug Screen. Data for tumor model Colon Carcinoma 38 (subcutaneous) in B6D2F1 (BDF1) mice
Experimental: The antitumor activity of compounds was measured in mice bearing transplantable tumors. Survival or tumor size were measured and the results are expressed as the measurement made in the treated group (T) divided by the measurement made in the vehicle treated control group (C). The tumor model used in this assay is Colon Carcinoma 38 (subcutaneous) in B6D2F1 (BDF1) mice

[1] = T/C endpoint: median tumor weight (est.), dose: 400.0 mg/kg/injection, schedule: Q07DX002 (ip), vehicle: Klucel (hydroxypropylcellulose) (HPC), evaluated on day 20, higher T/C = larger tumour
[2] = T/C endpoint: median tumor weight (est.), dose: 100.0 mg/kg/injection, schedule: Q07DX002 (ip), vehicle: saline, evaluated on day 20, higher T/C = larger tumour

OCC12COCN1COC2
T/C (T/C endpoint: median tumor weight (est.), dose: 800.0 mg/kg/injection, schedule: Q07DX002 (ip), vehicle: saline, evaluated on day 20, higher T/C = larger tumour): 132 % of control

COc1c(O)c2c(c3cc(C(=O)N4CCc5c4c(O)c(OC)c4[nH]c(C(=O)N6CC7CC78C6=CC(=O)c6[nH]cc(C)c68)cc54)[nH]c13)CCN2C(N)=O (stereo not drawn)
T/C (T/C endpoint: median tumor weight (est.), dose: 12.5 micrograms/kg/injection, schedule: Q07DX002 (ip), vehicle: DMSO, evaluated on day 20, higher T/C = larger tumour): 134 % of control | survivor count (T/C endpoint: median tumor weight (est.), dose: 100.0 micrograms/kg/injection, schedule: Q07DX002 (ip), vehicle: DMSO, higher T/C = larger tumour): 5 of 10 on day 20 | survivor count (T/C endpoint: median tumor weight (est.), dose: 200.0 micrograms/kg/injection, schedule: Q07DX002 (ip), vehicle: DMSO, higher T/C = larger tumour): 3 of 10 on day 20

OCC1OC(n2cnc3c2NC=NC[C@H]3O)CC1O (stereo partly drawn)
T/C (T/C endpoint: median tumor weight (est.), dose: 4.0 mg/kg/injection, schedule: Q07DX002 (ip), vehicle: saline, evaluated on day 20, higher T/C = larger tumour): 130 % of control [9 of 10 alive on day 20] | survivor count (T/C endpoint: median tumor weight (est.), dose: 32.0 mg/kg/injection, schedule: Q07DX002 (ip), vehicle: saline, higher T/C = larger tumour): 4 of 10 on day 20 | survivor count (T/C endpoint: median tumor weight (est.), dose: 64.0 mg/kg/injection, schedule: Q07DX002 (ip), vehicle: saline, higher T/C = larger tumour): 1 of 10 on day 20

CSc1ncc2ncn(C3OC(CO)C(O)C3O)c2n1 (stereo not drawn)
T/C (T/C endpoint: median tumor weight (est.), dose: 25.0 mg/kg/injection, schedule: Q07DX002 (ip), vehicle: Klucel (hydroxypropylcellulose) (HPC), evaluated on day 20, higher T/C = larger tumour): 133 % of control | T/C [1]: 130 % of control

CC(=O)N(C)C
T/C (T/C endpoint: median tumor weight (est.), dose: 225.0 mg/kg/injection, schedule: Q07DX002 (ip), vehicle: saline, evaluated on day 20, higher T/C = larger tumour): 133 % of control | survivor count (T/C endpoint: median tumor weight (est.), dose: 7200.0 mg/kg/injection, schedule: Q07DX002 (ip), vehicle: saline, higher T/C = larger tumour): 0 of 10 on day 20

CS(=O)(=O)OCCCNCCCOS(C)(=O)=O
survivor count (T/C endpoint: median tumor weight (est.), dose: 150.0 mg/kg/injection, schedule: Q07DX003 (ip), vehicle: saline, higher T/C = larger tumour): 4 of 10

Oc1c(Cl)cc(Cl)cc1C=NCCSc1ccc(Cl)cc1
T/C [1]: 148 % of control | survivor count (T/C endpoint: median tumor weight (est.), dose: 800.0 mg/kg/injection, schedule: Q07DX002 (ip), vehicle: Klucel (hydroxypropylcellulose) (HPC), higher T/C = larger tumour): 2 of 10 on day 20

CCN(CC)CCC(=O)c1ccccc1
T/C (T/C endpoint: median tumor weight (est.), dose: 6.25 mg/kg/injection, schedule: Q07DX002 (ip), vehicle: saline, evaluated on day 20, higher T/C = larger tumour): 142 % of control | T/C [2]: 139 % of control | T/C (T/C endpoint: median tumor weight (est.), dose: 100.0 mg/kg/injection, schedule: Q07DX002 (ip), vehicle: suspension in saline, evaluated on day 20, higher T/C = larger tumour): 135 % of control | survivor count (T/C endpoint: median tumor weight (est.), dose: 200.0 mg/kg/injection, schedule: Q07DX002 (ip), vehicle: saline, higher T/C = larger tumour): 0 of 10 on day 20 and 3 of 10 on day 20 | survivor count (T/C endpoint: median tumor weight (est.), dose: 200.0 mg/kg/injection, schedule: Q07DX002 (ip), vehicle: suspension in saline, higher T/C = larger tumour): 0 of 10 on day 20

OC(CCl)CN1CC[N+]2(CC1)CC[N+]1(CCN(CC(O)CCl)CC1)CC2 (stereo not drawn)
T/C [2]: 132 % of control

CCCCCCCCCCCC(=O)NC1CC(O[C@H]2C[C@](O)(C(=O)CO)Cc3c(O)c4c(c(O)c32)C(=O)c2c(OC)cccc2C4=O)OC(C)C1O (stereo partly drawn)
T/C (T/C endpoint: median survival time, dose: 27.0 mg/kg/injection, schedule: Q07DX003 (iv), vehicle: saline, higher T/C = longer survival): 145 % of control [8 of 10 alive on day 107] | survivor count (T/C endpoint: median tumor weight (est.), dose: 112.5 mg/kg/injection, schedule: Q07DX002 (ip), vehicle: distilled water + Tween-80, higher T/C = larger tumour): 6 of 10 on day 20 | survivor count (T/C endpoint: median tumor weight (est.), dose: 225.0 mg/kg/injection, schedule: Q07DX002 (ip), vehicle: distilled water + Tween-80, higher T/C = larger tumour): 4 of 10 on day 20

[O-][n+]1c(CN2CCCCC2)nc2cccc3c2c1-c1ccccc1-3
T/C (T/C endpoint: median tumor weight (est.), dose: 50.0 mg/kg/injection, schedule: Q07DX002 (ip), vehicle: saline with Tween-80, evaluated on day 20, higher T/C = larger tumour): 147 % of control | T/C (T/C endpoint: median tumor weight (est.), dose: 200.0 mg/kg/injection, schedule: Q07DX002 (ip), vehicle: saline with Tween-80, evaluated on day 20, higher T/C = larger tumour): 136 % of control | survivor count (T/C endpoint: median tumor weight (est.), dose: 800.0 mg/kg/injection, schedule: Q07DX002 (ip), vehicle: saline with Tween-80, higher T/C = larger tumour): 2 of 10 on day 20

Nc1ccn(C2CC(O)C(CO)O2)c(=O)n1 (stereo not drawn)
T/C (T/C endpoint: median tumor weight (est.), dose: 168.75 mg/kg/injection, schedule: Q07DX002 (ip), vehicle: water, evaluated on day 20, higher T/C = larger tumour): 128 % of control [9 of 10 alive on day 20] | T/C (T/C endpoint: median tumor weight (est.), dose: 675.0 mg/kg/injection, schedule: Q07DX002 (ip), vehicle: water, evaluated on day 20, higher T/C = larger tumour): 129 % of control

Source: PubChem BioAssay AID212 (DTP/NCI, 2004)
